Assay results published in paper PMC6209375.

Assays:
Test in all cases: pull-down; GST fusions of NCL and its fragments on glutathione-sepharose beads (25 uM GST fusion protein, three-fold molar excess of prey) incubated in lysates of RK-13 cells transfected with the myc-VP60 plasmid for 48 h; blot with anti-VP60 mAb; only the target purified
GST-NTD-C1 (rabbit) = target: T1, GST-NTD-C1 (rabbit) (UniProt G1TVT0)
T1 sequence: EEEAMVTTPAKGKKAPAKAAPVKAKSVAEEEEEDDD

GST-NTD-C3 (rabbit) = target: T2, GST-NTD-C3 (rabbit) (UniProt G1TVT0)
T2 sequence: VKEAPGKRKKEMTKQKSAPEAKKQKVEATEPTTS

GST-NTD-C (rabbit) = target: T3, GST-NTD-C (rabbit) (UniProt G1TVT0)
T3 sequence: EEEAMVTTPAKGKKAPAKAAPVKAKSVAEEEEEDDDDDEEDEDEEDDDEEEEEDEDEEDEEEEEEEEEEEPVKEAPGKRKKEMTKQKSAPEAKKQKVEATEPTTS

GST-NTD-C2 (rabbit) = target: T4, GST-NTD-C2 (rabbit) (UniProt G1TVT0)
T4 sequence: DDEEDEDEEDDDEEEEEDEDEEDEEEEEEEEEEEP

myc-VP60 (myc-tagged RHDV capsid protein VP60)
binding (GST-NTD-C1 (rabbit)): no binding | binding (GST-NTD-C3 (rabbit)): binds | binding (GST-NTD-C (rabbit)): binds | binding (GST-NTD-C2 (rabbit)): no binding

No constants are given. Whether binding was seen depends on the method and setting. Binding seen in cells or lysates may run through a third protein. For some of these results: Binding can be weak; no strength is given. Tags and fused reporters may be left off the sequences shown.
